In all, about 220,000 compounds went through this assay and about 770 (0.35%) were called active. The shares of active, inactive and inconclusive entries below differ from those in the screen. No stated cut-off is given here; in the data, active means binding response below about 49% or above about 150%; inconclusive means no clear call, values can overlap the other calls; inactive means in between.
Each compound was assayed against Guanine nucleotide-binding protein G(o) subunit alpha (Homo sapiens) (UniProt P09471) (assay: RGS7-Galphao binding modulators, primary screen, biochemical, multiplexed bead flow cytometry (AID 1439;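 further: fluorescent Galphao held in activated GDP-AlF4 state binding bead-coupled RGS7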)). Details: at 10 µM, actives lie on both sides.

Protein sequences, listed by entry. Tags and fused reporters are not part of them.
UniProt P09471, whole entry, looked up: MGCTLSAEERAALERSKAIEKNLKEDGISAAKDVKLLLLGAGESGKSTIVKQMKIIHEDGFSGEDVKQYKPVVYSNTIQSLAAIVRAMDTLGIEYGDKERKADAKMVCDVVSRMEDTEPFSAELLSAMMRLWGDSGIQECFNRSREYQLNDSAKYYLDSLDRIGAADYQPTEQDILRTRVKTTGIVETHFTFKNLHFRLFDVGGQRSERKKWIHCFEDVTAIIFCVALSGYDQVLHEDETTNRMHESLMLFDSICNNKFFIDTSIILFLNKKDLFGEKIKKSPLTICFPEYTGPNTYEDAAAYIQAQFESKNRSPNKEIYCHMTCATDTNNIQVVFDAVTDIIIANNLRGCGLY

| SMILES | binding response (% of control) |
| --- | --- |
| O=C1Oc2ccccc2C2(O)C3CCCCCC3C12 (stereo not drawn) | inactive: 91.8% |
| Cc1nc(COc2cccc(Cl)c2)sc1C(=O)/C=C/N(C)C | inconclusive: 84% |
| COC(C[C@H]1O[C@@H]1[C@@H](O)COCc1ccccc1)OC | inconclusive: 109% |
| C=CCNC(=O)c1onc(CSc2cccc(OC)c2)c1C(=O)NCC=C | inconclusive: 106% |
| NS(=O)(=O)c1ccc(-n2cccc2C=O)cc1 | inconclusive: 85.5% |
| CC1=NNC(=O)C1CC(=O)N/N=C/C(Br)=C/c1ccccc1 (stereo not drawn) | inconclusive: 95.8% |
| Fc1ccc(N/N=C2/CCSc3sccc32)c(F)c1 | inconclusive: 99.5% |
| CC(C)(C)C(=O)CN1C2=NCCN2c2ccccc21 | inactive: 109% |
| O=C(N/N=C/c1ccncc1)NC1CCCCC1 | inconclusive: 84.7% |
| Cc1cc(Oc2ccc(OCC(N)=O)nn2)nc(Cl)n1 | inconclusive: 107% |
| COc1cc2[nH]c3c(=O)n(CCN4CCOCC4)cnc3c2cc1OC | inconclusive: 87% |
| Cc1ccc(S(=O)(=O)Nc2ccc(N3CCOCC3)cc2)cc1 | inactive: 93.4% |
| O=c1[nH]nc(CNc2ccc(Cl)cc2Cl)c2ccccc12 | inconclusive: 99.6% |
| CCOc1cc(/C=C(\C#N)C(=O)Nc2ccccc2[N+](=O)[O-])ccc1OCc1cccc2ccccc12 | inactive: 102% |
| CC(C)COC(=O)NC1c2ccccc2Oc2ccccc21 | inconclusive: 41.6% |
| CCOC(=O)C(=CNc1cscc1S(=O)(=O)C(C)C)C(=O)OCC | inconclusive: 105% |
| CCc1nnc(NC(=O)C2=CCN(S(=O)(=O)c3ccccc3)CC2)s1 | inconclusive: 89.8% |
| Nc1nc(Nc2cccc(F)c2)nc(N2CCOCC2)c1[N+](=O)[O-] | inconclusive: 82.1% |
| Cc1cccc(N2CCC(N=CN(C)C)=N2)c1 | inactive: 98.8% |
| CCC(=O)N1CCC2(CC1)Oc1ccc(F)cc1C(=O)C21CC(c2ccccc2)=NO1 (stereo not drawn) | inconclusive: 94.6% |
| O=C(NC(c1ccccc1)c1ccccc1)N1CCOCC1 | inconclusive: 131% |
| COc1ccc(Cl)cc1NC(=O)Nc1cn(C)nc1C | inconclusive: 99.8% |
| O=C(COc1ccc2ccccc2c1)Nc1nnc(-c2ccco2)s1 | inconclusive: 131% |
| c1ccc(CCC2CCCCN2Cc2nc(-c3ccc4c(c3)OCO4)no2)nc1 (stereo not drawn) | inactive: 98.2% |

Random excerpt: two records from the list.

| SMILES | binding response (% of control) |
| --- | --- |
| CCC(=O)N1CCC2(CC1)Oc1ccc(F)cc1C(=O)C21CC(c2ccccc2)=NO1 (stereo not drawn) | inconclusive: 94.6% |
| CCc1nnc(NC(=O)C2=CCN(S(=O)(=O)c3ccccc3)CC2)s1 | inconclusive: 89.8% |

Further results

| SMILES | binding response (% of control) |
| --- | --- |
| O=C(CCS(=O)(=O)c1cccc2nsnc12)NCc1ccccc1Cl | inactive: 104% |
| CC(C)CC1(C)NC(=O)N(CC(=O)Nc2ccc3c(c2)CCC3)C1=O (stereo not drawn) | inconclusive: 64.3% |
| Cc1c(C(=O)N(Cc2ccccc2)Cc2cccnc2)cnn1-c1ccc(F)cc1 | inconclusive: 82.9% |
| Cc1nnc(NC(=O)CSc2nnc(C)n2Cc2ccccc2)s1 | inactive: 102% |
| CC(=O)N1CCN(S(=O)(=O)c2cccc(C(=O)OCC(=O)NC(=O)c3cccn3C)c2)CC1 | inactive: 108% |
| COCc1cc(=O)n2[nH]c(-c3ccco3)cc2n1 | inconclusive: 44.1% |
| COc1ccc(-c2nn(-c3ccccc3)cc2/C=C/C(=O)NCCCn2ccnc2)cc1OC | inactive: 96% |
| O=C(NN=C(Cc1ccccc1)Cc1ccccc1)c1ccccc1F | inconclusive: 92.2% |
| Cc1ccc(OCC(=O)c2c[nH]c3ccccc23)c([N+](=O)[O-])n1 | inconclusive: 117% |
| Cc1ccc(/C=C/C(=O)O)cc1S(=O)(=O)N1CCCCC1 | inconclusive: 133% |
| Cc1ccc(O)c(NC(=S)NC(=O)C(C)C)c1 | inconclusive: 216% |
| FC(F)(F)c1ccnc(NCc2ccco2)n1 | inconclusive: 130% |
| CCCCNC(=O)Oc1cc(CCl)on1 | inconclusive: 100% |
| COc1ccc2c(c1)c1ncn(CCCN3CCOCC3)c(=O)c1n2C | inactive: 102% |
| N#C/C(=N\Nc1ccc([N+](=O)[O-])cc1)C(N)=S | inconclusive: 86.8% |
| O=C(Oc1cccc([N+](=O)[O-])c1)N1CCCCC1 | inactive: 117% |
| CC(C)(C)c1csc(Sc2ccc([N+](=O)[O-])cn2)n1 | inconclusive: 76.6% |
| COc1ccc(CC(NC(C)=O)C(=O)NC2CCN(C(=O)c3cc(OC)c(OC)c(OC)c3)CC2)cc1 (stereo not drawn) | inconclusive: 122% |
| COc1ccc(C(=O)CCC(=O)Nc2cccnc2)cc1 | active: 2.59% |
| CCCCN1C(=O)/C(=C(/C#N)C(=O)N2CCCC2)c2ccccc21 | inconclusive: 99.7% |
| S=C(Nc1ccccc1)c1nc2ccccc2s1 | inactive: 123% |
| COC(=O)c1ccc(C(=O)OC)c(NC(=O)CSc2ccccn2)c1 | active: 157% [activator] |
| COc1ccc(-c2cn[nH]c2-c2ccc(OCc3ccc([N+](=O)[O-])cc3)cc2O)cc1OC | inconclusive: 86.2% |
| CCN(CC)S(=O)(=O)c1ccc(N2CCOCC2)c(NC(=O)CCOc2ccccc2)c1 | inconclusive: 93.4% |

| SMILES | binding response (% of control) |
| --- | --- |
| COCc1[nH][nH]c(=O)c1C=Nc1ccc(OC(F)(F)F)cc1 | inconclusive: 109% |
| O=c1[nH]c(CN2CCN(c3ncccn3)CC2)nc2c(Br)cc(Br)cc12 | inconclusive: 75.7% |
| Cn1c(=O)[nH]c(=O)c2c1nc1n2CC(COc2ccc3ccccc3c2)O1 (stereo not drawn) | inconclusive: 75% |
| COc1ccc(CCNC(=O)C(=O)NCc2ccccn2)cc1 | inconclusive: 86.5% |
| Cc1cc(-c2cc(C(=O)NC3CCCC3)on2)nc(NCC2CC2)n1 | inconclusive: 125% |
| CN(C(=S)NC(=O)c1ccccc1)c1c(N)n(Cc2ccccc2)c(=O)[nH]c1=O | inconclusive: 77% |
| N#Cc1c(-c2ccc(F)cc2)cc(-c2ccccc2)nc1SCC(=O)NCC(=O)O | inconclusive: 60.9% |
| COc1ccc(/C=N/n2c(-c3ccc(C)cc3)n[nH]c2=S)cc1OC | inconclusive: 78.2% |
| Cc1cc(C(=O)Nc2ccon2)c(C)o1 | inconclusive: 135% |
| Cc1cccn2c(=O)c(C=O)c(N3CCC4(CC3)OCCO4)nc12 | inconclusive: 87.6% |
| O=C(/C=C/c1cccnc1)c1ccc(NC(=O)c2cccc(Br)c2)cc1 | inactive: 100% |
| O=C(O)/C=C/c1cn(Cc2ccccc2)nc1-c1cccnc1 | inconclusive: 84.1% |
| CC(C)(C)c1ccc(-c2nc(N)nc(N)n2)cc1 | inconclusive: -66% |
| CC(=O)n1nc(-c2ccccc2)nc1NCc1cccs1 | inactive: 100% |
| Nn1c(-c2ccc(O)cc2)nnc1-c1ccc(O)cc1 | inconclusive: 112% |
| CC(/C=C1\SC(=O)N(CCCC(=O)O)C1=O)=C\c1ccccc1 | active: 160% [activator] |
| CCNC(=O)c1ccc(C23CC4CC(CC(C4)C2)C3)o1 | inconclusive: 101% |
| O=C1N=C(N2CCCCC2)S/C1=C\c1ccncc1 | inconclusive: 85.6% |
| Cc1ccc(CN2CCN(CC(=O)N/N=C/c3ccc(C)o3)CC2)cc1 | inconclusive: 43% |
| CC(=O)/C=C(\C)N=Nc1c(O)[nH]c2ccccc12 | inconclusive: 88.9% |
| CCCCOc1ccc(C2=NNC(=O)CC2)cc1 | inactive: 99.7% |
| O=C(Nc1cccc2ncccc12)c1cccc(F)c1 | inactive: 92.6% |
| O=C1c2cc(S(=O)(=O)NCCCO)ccc2-c2ccc(S(=O)(=O)NCCCO)cc21 | inactive: 103% |
| COc1cc(/C=N\Nc2nc(-c3cccs3)c(NC(C)=O)s2)ccc1O | inconclusive: 148% |

| SMILES | binding response (% of control) |
| --- | --- |
| Cc1ccc(OCC(=O)O/N=C(\N)Cc2ccc([N+](=O)[O-])cc2)cc1C | inconclusive: 108% |
| O=C(CN1CCN(S(=O)(=O)c2ccc(Cl)s2)CC1)N1CCOCC1 | inconclusive: 81.6% |
| O=C(OCc1csc(-c2ccccc2)n1)c1ccccc1O | inconclusive: 96.2% |
| COc1cc(NC(=O)COC(=O)CCc2cc(OC)c(OC)c(OC)c2)cc(OC)c1 | inactive: 106% |
| Cc1cccc(NC(=O)COC(=O)CCc2ccc(S(=O)(=O)N3CCOCC3)cc2)c1C | inactive: 100% |
| C#CCCOC(=O)N1C2=NC(C(=O)OC)=C(C(=O)OC)[C@@H]3N(Cc4ccccc4)c4ccccc4[C@]23C[C@H]1C(=O)OC | inconclusive: 140% |
| CCOc1ccccc1N(C)C(=O)c1cc2c(=O)n(CC)c3ccccc3c2s1 | inconclusive: 90% |
| O=C1NC[C@@H](Cc2ccc(O)cc2)N(CCc2cccc(F)c2)C1=O | inconclusive: 106% |
| O=C1CS/C(=N/N=C/c2ccco2)N1Cc1ccc(F)cc1 | inconclusive: 92.6% |
| COc1cc(Cl)c(C)cc1NC(=O)c1cccc(OC)c1OC | inconclusive: 101% |
| CCN(CCn1cccn1)Cc1c(C(=O)N2C[C@@H](C)O[C@@H](C)C2)nc2ccc(Cl)cn12 | inactive: 102% |
| Cc1cccnc1NC(=S)Nc1ccc(Br)cc1Cl | inconclusive: 115% |
| O=C(Nc1nc2nccc(-c3ccccc3)n2n1)c1ccccc1 | inconclusive: 108% |
| COc1ccc(SCCN2CCN(C)CCC2=O)cc1 | inconclusive: 89.9% |
| Cc1cc(NC(=O)CCCOc2ccc(Cl)cc2Cl)no1 | inactive: 131% |
| O=C(O)c1ccccc1N(Cc1ccccc1)C(=O)COc1ccccc1 | inconclusive: 68.7% |
| Cc1ccc(C2C(C#N)=C3N=C(N)c4ccccc4N3C3=C2C(=O)CCC3)cc1 (stereo not drawn) | inconclusive: 101% |
| COC(=O)CSc1nccc(-c2cccs2)n1 | inconclusive: 101% |
| Cc1ccccc1Cn1nc(C)c(NC(=O)c2cc(CC(C)C)on2)c1C | inconclusive: 111% |
| N#Cc1c(-c2cccs2)cc(-c2cccs2)[nH]c1=O | inconclusive: 98.1% |
| COC(=O)CCCC1=CC2=C(c3ccccc3)C(=O)C(C)(OC(=O)C3CCCC3)C(=O)C2=CN1Cc1ccc2c(c1)OCO2 (stereo not drawn) | inconclusive: 100% |

Exported with tabs: 7 of the compounds above.
SMILES	binding response (% of control)
CC(C)(C)C(=O)CN1C2=NCCN2c2ccccc21	inactive: 109%
Cc1ccc(S(=O)(=O)Nc2ccc(N3CCOCC3)cc2)cc1	inactive: 93.4%
CCc1nnc(NC(=O)C2=CCN(S(=O)(=O)c3ccccc3)CC2)s1	inconclusive: 89.8%
Cc1ccc(OCC(=O)c2c[nH]c3ccccc23)c([N+](=O)[O-])n1	inconclusive: 117%
Cc1ccc(O)c(NC(=S)NC(=O)C(C)C)c1	inconclusive: 216%
COc1ccc2c(c1)c1ncn(CCCN3CCOCC3)c(=O)c1n2C	inactive: 102%
COc1cc(NC(=O)COC(=O)CCc2cc(OC)c(OC)c(OC)c2)cc(OC)c1	inactive: 106%
